Source: PubChem BioAssay AID1259254 (NCATS, 2017)
Screen: 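Genome-wide screen for genes that prevent DNA re-replication in cancer cells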 (primary screen). System: human HCT116 colorectal cancer cells. Knock-down reagent: single siRNA against human genes. Timing: 3 days. Measured: 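Imaged Hoechst DNA stain sorts each cell into a cycle phase by DNA amount; per plate, G2 fraction set to 0% for non-targeting and 100% for GMNN siRNA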. Scale: G2 robust z-score: higher = more G2 cells, more excess DNA replication. Active means: 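An siRNA counts as active if its G2 robust z-score lies at least 5 MADs above the screen median; here such calls match roughly 38% of GMNN control or more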.
Shown is an unselected part of about 59,000 reagents tested. About 1,550 of all reagents (2.6%) were called active. 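G2 share is only a proxy for re-replication; each gene was hit by three separate siRNAs, and active genes were retested.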 Reagents against one gene are numbered here. Further read-outs or replicates are left out here. No sequences are given here. Not stated in the record: the amount of reagent.

G2 robust z-score, by gene and reagent
HIP1R: #1 7.2 active; #2 -0.797 inactive; #3 -0.117 inactive
CRYBG2: #1 -0.712 inactive; #2 -0.574 inactive; #3 -0.987 inactive
CASP7: #1 -0.116 inactive; #2 5.77 active; #3 -0.809 inactive
FBXL13: #1 2.2 inactive; #2 8.02 active; #3 2.12 inactive
TBX22: #1 -0.817 inactive; #2 0.232 inactive; #3 -0.979 inactive
ZNF329: #1 -0.346 inactive; #2 -0.546 inactive; #3 0.758 inactive
ELOC: #1 -0.549 inactive; #2 0.93 inactive; #3 -0.669 inactive
OR2W1: #1 -0.794 inactive; #2 1.68 inactive; #3 -0.234 inactive
GPR84: #1 -0.756 inactive; #2 0.513 inactive; #3 -0.703 inactive
ZNF146: #1 0.168 inactive; #2 -0.957 inactive; #3 2.62 inactive
EHD1: #1 -0.827 inactive; #2 -1.19 inactive; #3 1.02 inactive
PCDHB9: #1 1.53 inactive; #2 -0.34 inactive; #3 -0.636 inactive
PROCA1: #1 0.815 inactive; #2 -0.944 inactive; #3 -1.31 inactive
ZFX: #1 0.32 inactive; #2 -1.3 inactive; #3 0.00023 inactive
SLC25A53: #1 6.99 active; #2 3.61 inactive; #3 0.447 inactive
NBPF22P: #1 1.06 inactive; #2 1.4 inactive; #3 -1.02 inactive
RNPEP: #1 -1.04 inactive; #2 -0.492 inactive; #3 -0.549 inactive
NOS1: #1 -0.305 inactive; #2 3.08 inactive; #3 0.353 inactive
NELFCD: #1 3.2 inactive; #2 0.536 inactive; #3 -0.315 inactive
RPL7P46: #1 -0.14 inactive; #2 0.444 inactive; #3 2.37 inactive
AADAC: #1 -0.382 inactive; #2 0.738 inactive; #3 0.922 inactive
RNF175: #1 -0.264 inactive; #2 -0.602 inactive; #3 -0.674 inactive
ACTR2: #1 -0.301 inactive; #2 1.14 inactive; #3 2.54 inactive

Copied from the entries so far, 4 entries:
G2 robust z-score, by gene and reagent
PCDHB9: #3 -0.636 inactive
PROCA1: #1 0.815 inactive; #2 -0.944 inactive; #3 -1.31 inactive
